From patent publication US20260042827A1, “ANTI-WT1 ANTIGEN-BINDING PROTEINS AND USES THEREOF” (UNIVERSITY HEALTH NETWORK, priority 2022, published 2026)

Tests used:
HLA-DP2 (human) [1] = test: cell-based competitive binding assay
HLA-DP2 (human) [2] = test: cell-based competitive binding assay (figure legend)
HLA-DP2 (human) [3] = test: cell-based competitive binding assay on T2/DP2 cells, graded WT1328-348 against reference peptide Oxy271-287

Measured: binding

B1: WT1328-348 (peptide)
peptide: PGCNKRYFKLSHLQMHSRKHT
binds: all assays above

No constants are given. Whether binding was seen depends on the method and setting. A result given as binding can be weak or reduced; the word gives no strength.
